Reference: PubChem BioAssay AID1508597 (Cure First, 2020)

Test: 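Knock-downs altering ovarian cancer cell survival with or without PARP inhibitor rucaparib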 (primary screen)
System: human ovarian carcinoma lines grown from tumours: OCI-P5x (papillary serous) and OCI-C5x (clear cell)
Reagent: siRNA pool against human genes, 1.25 pmol siRNA per well
Duration: 72 h or 96 h, depending on the cell culture
Conditions: rucaparib 20 µM (about IC30) or vehicle, present until read-out
Rucaparib or vehicle: Rucaparib
Cell line: OCI-C5x (clear cell)
Read-out: 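Luminescent ATP-based viability assay read 72 or 96 h after transfection, depending on culture, given as normalised percent viability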
Reading the numbers: viability, normalised: higher = more viable cells remaining
Hit rule: 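a well counts as a hit if its normalised viability is under 80 percent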
Calls: active = viability under 80%; inactive = viability 80% or more
Shown is an unselected part of the about 2,100 reagents, under one of the conditions tested. 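Calls flag viability under 80% in either arm, not effects specific to rucaparib; the reference for percent is not stated.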 A number with no mark means an inactive call. A reagent listed more than once was tested more than once; the source does not tell the runs apart. Not stated in the record: the 100% reference.

| Target gene | technical replicate | viability, normalised (%) |
| --- | --- | --- |
| IKZF1 (IKAROS family zinc finger 1) | 1 | 65.2 (active) |
| IKZF1 (IKAROS family zinc finger 1) | 2 | 41.7 (active) |
| IKZF1 (IKAROS family zinc finger 1) | 3 | 51.8 (active) |
| PEA15 (proliferation and apoptosis adaptor protein 15) | 1 | 46.7 (active) |
| PEA15 (proliferation and apoptosis adaptor protein 15) | 2 | 38.8 (active) |
| PEA15 (proliferation and apoptosis adaptor protein 15) | 3 | 39.8 (active) |
| MAPK11 (mitogen-activated protein kinase 11) | 1 | 58.9 (active) |
| MAPK11 (mitogen-activated protein kinase 11) | 2 | 61.9 (active) |
| MAPK11 (mitogen-activated protein kinase 11) | 3 | 45.4 (active) |
| ERN2 (endoplasmic reticulum to nucleus signaling 2) | 1 | 85 |
| ERN2 (endoplasmic reticulum to nucleus signaling 2) | 2 | 63.4 (active) |
| ERN2 (endoplasmic reticulum to nucleus signaling 2) | 3 | 53.8 (active) |
| ENPP6 (ectonucleotide pyrophosphatase/phosphodiesterase 6) | 1 | 70.6 (active) |
| ENPP6 (ectonucleotide pyrophosphatase/phosphodiesterase 6) | 2 | 67.1 (active) |
| ENPP6 (ectonucleotide pyrophosphatase/phosphodiesterase 6) | 3 | 60.9 (active) |
| CENPV (centromere protein V) | 1 | 42.1 (active) |
| CENPV (centromere protein V) | 2 | 41.8 (active) |
| CENPV (centromere protein V) | 3 | 37 (active) |
| PAK6 (p21 (RAC1) activated kinase 6) | 1 | 66.6 (active) |
| PAK6 (p21 (RAC1) activated kinase 6) | 1 | 59.6 (active) |
| PAK6 (p21 (RAC1) activated kinase 6) | 2 | 54.7 (active) |
| PAK6 (p21 (RAC1) activated kinase 6) | 2 | 57 (active) |
| PAK6 (p21 (RAC1) activated kinase 6) | 3 | 49 (active) |
| PAK6 (p21 (RAC1) activated kinase 6) | 3 | 52.1 (active) |
| BLNK (B cell linker) | 1 | 45.9 (active) |
| BLNK (B cell linker) | 2 | 44.4 (active) |
| BLNK (B cell linker) | 3 | 35.6 (active) |
| LMTK1 (lemur tail kinase 1) | 1 | 42.1 (active) |
| LMTK1 (lemur tail kinase 1) | 2 | 36.1 (active) |
| LMTK1 (lemur tail kinase 1) | 3 | 42.6 (active) |
| RPA3 (replication protein A3) | 1 | 41.9 (active) |
| RPA3 (replication protein A3) | 2 | 52.8 (active) |
| RPA3 (replication protein A3) | 3 | 53.8 (active) |
| RAD54L (RAD54 like) | 1 | 37.5 (active) |
| RAD54L (RAD54 like) | 1 | 40.9 (active) |
| RAD54L (RAD54 like) | 2 | 43.4 (active) |
| RAD54L (RAD54 like) | 2 | 39.9 (active) |
| RAD54L (RAD54 like) | 3 | 40.6 (active) |
| RAD54L (RAD54 like) | 3 | 39 (active) |
| JADE3 (jade family PHD finger 3) | 1 | 58.9 (active) |
| JADE3 (jade family PHD finger 3) | 2 | 57.7 (active) |
| JADE3 (jade family PHD finger 3) | 3 | 68.6 (active) |

Reformatted: results already given.
{"Target gene": "PEA15 (proliferation and apoptosis adaptor protein 15)", "technical replicate": "2", "viability, normalised (%)": "38.8 (active)"}
{"Target gene": "PEA15 (proliferation and apoptosis adaptor protein 15)", "technical replicate": "3", "viability, normalised (%)": "39.8 (active)"}
{"Target gene": "MAPK11 (mitogen-activated protein kinase 11)", "technical replicate": "1", "viability, normalised (%)": "58.9 (active)"}
{"Target gene": "MAPK11 (mitogen-activated protein kinase 11)", "technical replicate": "2", "viability, normalised (%)": "61.9 (active)"}
{"Target gene": "MAPK11 (mitogen-activated protein kinase 11)", "technical replicate": "3", "viability, normalised (%)": "45.4 (active)"}
{"Target gene": "ERN2 (endoplasmic reticulum to nucleus signaling 2)", "technical replicate": "1", "viability, normalised (%)": 85}

Further reagents:
| Target gene | technical replicate | viability, normalised (%) |
| --- | --- | --- |
| PCSK9 (proprotein convertase subtilisin/kexin type 9) | 1 | 29.4 (active) |
| PCSK9 (proprotein convertase subtilisin/kexin type 9) | 2 | 32.5 (active) |
| PCSK9 (proprotein convertase subtilisin/kexin type 9) | 3 | 39.9 (active) |
| MLH1 (mutL homolog 1) | 1 | 60 (active) |
| MLH1 (mutL homolog 1) | 2 | 48.8 (active) |
| MLH1 (mutL homolog 1) | 3 | 48.2 (active) |
| PDGFRA (platelet derived growth factor receptor alpha) | 1 | 92.9 |
| PDGFRA (platelet derived growth factor receptor alpha) | 2 | 98 |
| PDGFRA (platelet derived growth factor receptor alpha) | 3 | 84.7 |
| HASPIN (histone H3 associated protein kinase) | 1 | 32.1 (active) |
| HASPIN (histone H3 associated protein kinase) | 1 | 39.4 (active) |
| HASPIN (histone H3 associated protein kinase) | 1 | 52.3 (active) |
| HASPIN (histone H3 associated protein kinase) | 2 | 59.7 (active) |
| HASPIN (histone H3 associated protein kinase) | 2 | 44.3 (active) |
| HASPIN (histone H3 associated protein kinase) | 2 | 52.7 (active) |
| HASPIN (histone H3 associated protein kinase) | 3 | 59.1 (active) |
| HASPIN (histone H3 associated protein kinase) | 3 | 58.8 (active) |
| HASPIN (histone H3 associated protein kinase) | 3 | 42.2 (active) |
| CD40LG (CD40 ligand) | 1 | 79.7 (active) |
| CD40LG (CD40 ligand) | 2 | 68.5 (active) |
| CD40LG (CD40 ligand) | 3 | 59.6 (active) |
| FANCL (FA complementation group L) | 1 | 45.6 (active) |
| FANCL (FA complementation group L) | 2 | 47.3 (active) |
| FANCL (FA complementation group L) | 3 | 45.1 (active) |
| POLD2 (DNA polymerase delta 2, accessory subunit) | 1 | 48.2 (active) |
| POLD2 (DNA polymerase delta 2, accessory subunit) | 2 | 51.4 (active) |
| POLD2 (DNA polymerase delta 2, accessory subunit) | 3 | 52 (active) |
| ONECUT1 (one cut homeobox 1) | 1 | 38.2 (active) |
| ONECUT1 (one cut homeobox 1) | 2 | 41.5 (active) |
| ONECUT1 (one cut homeobox 1) | 3 | 40.1 (active) |
| ZSCAN20 (zinc finger and SCAN domain containing 20) | 1 | 75.3 (active) |
| ZSCAN20 (zinc finger and SCAN domain containing 20) | 2 | 71.3 (active) |
| ZSCAN20 (zinc finger and SCAN domain containing 20) | 3 | 40 (active) |
